Data reported in patent US20090312435A1, “SUBSTITUTED PHENETHYLAMINES WITH SEROTONINERGIC AND/OR NOREPINEPHRINERGIC ACTIVITY” (AUSPEX PHARMACEUTICALS, INC, priority 2006, published 2009).
Some results were stated once for a whole list of compounds, not compound by compound. Some ranges recur; such a range may be that of the whole group of compounds.

Assay: In vitro liver microsomal stability assay
Type: in vitro ADME
Conditions: 1 mg per mL liver microsome protein, NADPH-generating system, 5 microgram per mL test compound, 37° C., 0-60 minutes, LC/MS/MS

| Structure (SMILES) | increase in the degradation half-life as compared to the non-isotopically enriched drug |
| --- | --- |
| [2H]C([2H])([2H])Oc1ccc(C(CN(C([2H])([2H])[2H])C([2H])([2H])[2H])C2(O)CCCCC2)cc1 (stereo not shown) [d9-venlafaxine, d9-1-[2-Dimethylamino-1-(4-methoxyphenyl)-ethyl]-cyclohexanol] | 50-300% |
| [2H]C([2H])([2H])Oc1ccc(C(CN(C)C)C2(O)CCCCC2)cc1 (stereo not shown) [d3-venlafaxine, d3-1-[2-Dimethylamino-1-(4-methoxyphenyl)-ethyl]-cyclohexanol] | 50-300% |
| [2H]C([2H])([2H])Oc1ccc(C([2H])(CN(C([2H])([2H])[2H])C([2H])([2H])[2H])C2(O)C([2H])([2H])C([2H])([2H])C([2H])([2H])C([2H])([2H])C2([2H])[2H])cc1 (stereo not shown) [d20-venlafaxine, d20-1-[2-Dimethylamino-1-(4-methoxyphenyl)-ethyl]-cyclohexanol] | 50-300% |
| [2H]C([2H])([2H])Oc1ccc(C([2H])(CN(C)C)C2(O)C([2H])([2H])C([2H])([2H])C([2H])([2H])C([2H])([2H])C2([2H])[2H])cc1 (stereo not shown) [d14-venlafaxine, d14-1-[2-Dimethylamino-1-(4-methoxyphenyl)-ethyl]-cyclohexanol] | 50-300% |
